No constants are given. Whether binding was seen depends on the method and setting. In cells and extracts the contact can be indirect. Here binding means that the protein was enriched with, or labelled near, the bait; the list need not be complete.
T1: TIA-1 related protein (TIA-R) (human (endogenous in frontal cortex tissue)) (UniProt Q01085)
T1 sequence: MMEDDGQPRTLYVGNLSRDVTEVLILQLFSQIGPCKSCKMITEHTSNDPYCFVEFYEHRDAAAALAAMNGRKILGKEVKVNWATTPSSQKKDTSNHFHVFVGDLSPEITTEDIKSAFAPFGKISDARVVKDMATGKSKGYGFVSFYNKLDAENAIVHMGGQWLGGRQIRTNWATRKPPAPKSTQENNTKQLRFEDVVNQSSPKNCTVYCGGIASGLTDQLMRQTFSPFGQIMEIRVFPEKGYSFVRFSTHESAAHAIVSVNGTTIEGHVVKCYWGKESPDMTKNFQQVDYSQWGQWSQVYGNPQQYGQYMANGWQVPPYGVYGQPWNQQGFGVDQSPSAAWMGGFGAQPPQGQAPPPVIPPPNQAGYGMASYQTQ

Amino acid sequences for entries named in this document (tags omitted). Residues count along the entry.
UniProt P15531: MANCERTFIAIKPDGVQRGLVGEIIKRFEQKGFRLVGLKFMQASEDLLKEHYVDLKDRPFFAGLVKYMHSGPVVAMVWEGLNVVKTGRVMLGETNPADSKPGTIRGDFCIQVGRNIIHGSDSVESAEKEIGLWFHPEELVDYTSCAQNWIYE
UniProt P68366: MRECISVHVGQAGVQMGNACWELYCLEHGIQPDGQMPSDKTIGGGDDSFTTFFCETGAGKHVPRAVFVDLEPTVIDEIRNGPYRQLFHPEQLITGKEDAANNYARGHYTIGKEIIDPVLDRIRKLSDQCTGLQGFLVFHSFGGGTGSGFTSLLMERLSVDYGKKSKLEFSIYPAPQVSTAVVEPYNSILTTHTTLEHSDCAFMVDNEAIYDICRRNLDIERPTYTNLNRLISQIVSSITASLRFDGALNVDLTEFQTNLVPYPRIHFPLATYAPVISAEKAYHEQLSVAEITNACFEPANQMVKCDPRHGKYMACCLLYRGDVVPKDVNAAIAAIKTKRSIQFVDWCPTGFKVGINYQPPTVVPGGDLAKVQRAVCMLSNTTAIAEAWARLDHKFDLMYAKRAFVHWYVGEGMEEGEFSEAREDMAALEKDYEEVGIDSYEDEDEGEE
UniProt P05067, residues 18-770: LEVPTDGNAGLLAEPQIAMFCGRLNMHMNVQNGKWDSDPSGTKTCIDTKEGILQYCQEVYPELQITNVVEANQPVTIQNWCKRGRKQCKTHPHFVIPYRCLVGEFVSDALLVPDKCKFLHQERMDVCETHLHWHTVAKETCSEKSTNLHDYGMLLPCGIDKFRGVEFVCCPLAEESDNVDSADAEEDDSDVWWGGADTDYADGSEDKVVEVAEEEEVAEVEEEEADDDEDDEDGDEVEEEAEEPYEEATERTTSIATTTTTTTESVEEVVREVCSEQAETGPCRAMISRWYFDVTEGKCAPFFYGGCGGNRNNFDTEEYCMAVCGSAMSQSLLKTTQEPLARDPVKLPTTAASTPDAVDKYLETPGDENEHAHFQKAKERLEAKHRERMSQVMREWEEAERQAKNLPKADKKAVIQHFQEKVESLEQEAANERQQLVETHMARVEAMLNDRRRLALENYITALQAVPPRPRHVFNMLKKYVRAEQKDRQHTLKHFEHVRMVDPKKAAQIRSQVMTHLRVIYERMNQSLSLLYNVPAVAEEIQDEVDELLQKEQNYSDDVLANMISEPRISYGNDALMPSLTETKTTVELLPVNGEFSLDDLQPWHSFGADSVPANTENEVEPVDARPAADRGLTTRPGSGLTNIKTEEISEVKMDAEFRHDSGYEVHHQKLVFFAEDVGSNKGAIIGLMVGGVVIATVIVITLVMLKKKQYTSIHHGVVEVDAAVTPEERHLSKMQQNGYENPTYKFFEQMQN
UniProt Q99729: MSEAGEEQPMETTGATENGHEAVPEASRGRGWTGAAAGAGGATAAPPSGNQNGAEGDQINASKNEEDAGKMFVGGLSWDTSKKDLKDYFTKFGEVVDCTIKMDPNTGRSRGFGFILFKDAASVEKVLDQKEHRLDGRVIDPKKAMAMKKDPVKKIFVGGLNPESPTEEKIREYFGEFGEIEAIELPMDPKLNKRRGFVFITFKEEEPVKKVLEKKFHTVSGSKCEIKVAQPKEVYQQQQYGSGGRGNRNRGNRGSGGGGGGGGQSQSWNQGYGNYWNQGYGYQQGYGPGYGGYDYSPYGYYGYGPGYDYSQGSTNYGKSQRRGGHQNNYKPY
UniProt P38919: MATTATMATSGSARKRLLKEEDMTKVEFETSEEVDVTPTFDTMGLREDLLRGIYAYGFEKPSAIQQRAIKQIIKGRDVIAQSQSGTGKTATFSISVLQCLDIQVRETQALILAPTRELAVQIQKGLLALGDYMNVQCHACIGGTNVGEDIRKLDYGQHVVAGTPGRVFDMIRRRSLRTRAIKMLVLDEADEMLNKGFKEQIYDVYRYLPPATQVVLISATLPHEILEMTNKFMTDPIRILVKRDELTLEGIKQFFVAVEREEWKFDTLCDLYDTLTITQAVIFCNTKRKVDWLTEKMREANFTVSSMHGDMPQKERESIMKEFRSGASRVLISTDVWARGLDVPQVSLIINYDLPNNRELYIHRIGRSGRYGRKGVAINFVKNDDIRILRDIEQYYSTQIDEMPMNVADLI
UniProt P06396, residues 28-782: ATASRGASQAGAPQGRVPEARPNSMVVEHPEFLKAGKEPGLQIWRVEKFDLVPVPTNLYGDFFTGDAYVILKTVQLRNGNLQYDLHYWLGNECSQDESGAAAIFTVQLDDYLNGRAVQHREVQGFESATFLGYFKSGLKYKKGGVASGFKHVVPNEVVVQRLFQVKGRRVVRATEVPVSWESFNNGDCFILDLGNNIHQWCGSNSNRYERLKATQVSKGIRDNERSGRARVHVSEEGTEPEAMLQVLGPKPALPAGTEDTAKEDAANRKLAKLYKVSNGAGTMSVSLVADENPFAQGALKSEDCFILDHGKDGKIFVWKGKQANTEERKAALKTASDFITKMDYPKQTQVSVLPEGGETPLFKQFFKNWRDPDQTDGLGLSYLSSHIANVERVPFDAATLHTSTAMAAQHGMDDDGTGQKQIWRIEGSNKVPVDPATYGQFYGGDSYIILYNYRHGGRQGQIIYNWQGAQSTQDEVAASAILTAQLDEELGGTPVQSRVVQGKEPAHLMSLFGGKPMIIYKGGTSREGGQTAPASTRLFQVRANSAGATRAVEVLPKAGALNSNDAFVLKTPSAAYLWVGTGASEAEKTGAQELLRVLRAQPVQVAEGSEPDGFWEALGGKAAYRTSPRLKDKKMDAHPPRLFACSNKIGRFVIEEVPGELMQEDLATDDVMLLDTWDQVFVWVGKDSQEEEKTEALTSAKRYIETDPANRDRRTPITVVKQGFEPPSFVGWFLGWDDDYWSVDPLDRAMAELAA
UniProt O75884: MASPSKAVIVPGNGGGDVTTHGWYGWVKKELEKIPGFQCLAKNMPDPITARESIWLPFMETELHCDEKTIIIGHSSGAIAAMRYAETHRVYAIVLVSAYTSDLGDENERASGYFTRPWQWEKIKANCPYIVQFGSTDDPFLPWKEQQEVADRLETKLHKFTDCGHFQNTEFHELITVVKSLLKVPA
UniProt Q13283: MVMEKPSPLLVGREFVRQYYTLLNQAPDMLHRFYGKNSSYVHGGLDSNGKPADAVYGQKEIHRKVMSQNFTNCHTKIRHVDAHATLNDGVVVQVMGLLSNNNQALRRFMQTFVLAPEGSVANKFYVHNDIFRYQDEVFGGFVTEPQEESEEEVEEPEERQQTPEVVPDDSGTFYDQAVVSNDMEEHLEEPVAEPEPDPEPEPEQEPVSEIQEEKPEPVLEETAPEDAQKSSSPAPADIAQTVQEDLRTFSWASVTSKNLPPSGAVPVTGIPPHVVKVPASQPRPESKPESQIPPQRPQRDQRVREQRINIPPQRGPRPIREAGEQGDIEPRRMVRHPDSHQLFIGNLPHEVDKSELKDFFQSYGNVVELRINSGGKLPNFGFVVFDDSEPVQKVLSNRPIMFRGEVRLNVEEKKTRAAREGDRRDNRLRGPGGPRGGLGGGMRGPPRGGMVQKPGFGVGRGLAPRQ
UniProt Q9H0Q3, residues 19-95: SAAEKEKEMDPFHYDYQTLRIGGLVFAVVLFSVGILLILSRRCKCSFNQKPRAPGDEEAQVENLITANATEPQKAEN
UniProt P11940: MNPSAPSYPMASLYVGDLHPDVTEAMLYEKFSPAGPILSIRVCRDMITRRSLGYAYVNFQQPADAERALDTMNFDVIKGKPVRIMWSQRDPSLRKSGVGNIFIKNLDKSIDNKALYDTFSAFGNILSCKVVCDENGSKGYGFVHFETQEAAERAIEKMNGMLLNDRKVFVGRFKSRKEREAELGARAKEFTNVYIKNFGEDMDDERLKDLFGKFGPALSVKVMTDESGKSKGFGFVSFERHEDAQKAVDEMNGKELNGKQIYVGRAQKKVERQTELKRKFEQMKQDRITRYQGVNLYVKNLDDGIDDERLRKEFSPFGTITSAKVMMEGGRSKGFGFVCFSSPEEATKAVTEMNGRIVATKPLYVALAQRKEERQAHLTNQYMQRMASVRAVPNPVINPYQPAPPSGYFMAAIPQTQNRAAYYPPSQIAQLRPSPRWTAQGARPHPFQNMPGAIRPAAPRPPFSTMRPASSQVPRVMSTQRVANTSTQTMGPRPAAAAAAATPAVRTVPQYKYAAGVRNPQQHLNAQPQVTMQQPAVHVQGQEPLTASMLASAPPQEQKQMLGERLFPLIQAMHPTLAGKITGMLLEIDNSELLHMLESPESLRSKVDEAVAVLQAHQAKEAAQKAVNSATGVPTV
UniProt P68363: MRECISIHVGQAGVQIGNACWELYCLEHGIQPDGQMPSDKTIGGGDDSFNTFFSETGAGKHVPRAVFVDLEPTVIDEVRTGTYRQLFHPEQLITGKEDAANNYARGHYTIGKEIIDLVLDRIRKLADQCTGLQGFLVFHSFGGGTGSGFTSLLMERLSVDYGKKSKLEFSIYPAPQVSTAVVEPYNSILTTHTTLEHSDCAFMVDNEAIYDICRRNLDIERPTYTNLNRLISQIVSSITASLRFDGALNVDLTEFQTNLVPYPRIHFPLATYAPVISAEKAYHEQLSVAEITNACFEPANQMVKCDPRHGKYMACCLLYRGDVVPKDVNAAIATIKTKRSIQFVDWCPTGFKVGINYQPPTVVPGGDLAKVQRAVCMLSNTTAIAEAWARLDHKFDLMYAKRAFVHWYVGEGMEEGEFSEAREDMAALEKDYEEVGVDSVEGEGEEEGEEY
UniProt Q92841: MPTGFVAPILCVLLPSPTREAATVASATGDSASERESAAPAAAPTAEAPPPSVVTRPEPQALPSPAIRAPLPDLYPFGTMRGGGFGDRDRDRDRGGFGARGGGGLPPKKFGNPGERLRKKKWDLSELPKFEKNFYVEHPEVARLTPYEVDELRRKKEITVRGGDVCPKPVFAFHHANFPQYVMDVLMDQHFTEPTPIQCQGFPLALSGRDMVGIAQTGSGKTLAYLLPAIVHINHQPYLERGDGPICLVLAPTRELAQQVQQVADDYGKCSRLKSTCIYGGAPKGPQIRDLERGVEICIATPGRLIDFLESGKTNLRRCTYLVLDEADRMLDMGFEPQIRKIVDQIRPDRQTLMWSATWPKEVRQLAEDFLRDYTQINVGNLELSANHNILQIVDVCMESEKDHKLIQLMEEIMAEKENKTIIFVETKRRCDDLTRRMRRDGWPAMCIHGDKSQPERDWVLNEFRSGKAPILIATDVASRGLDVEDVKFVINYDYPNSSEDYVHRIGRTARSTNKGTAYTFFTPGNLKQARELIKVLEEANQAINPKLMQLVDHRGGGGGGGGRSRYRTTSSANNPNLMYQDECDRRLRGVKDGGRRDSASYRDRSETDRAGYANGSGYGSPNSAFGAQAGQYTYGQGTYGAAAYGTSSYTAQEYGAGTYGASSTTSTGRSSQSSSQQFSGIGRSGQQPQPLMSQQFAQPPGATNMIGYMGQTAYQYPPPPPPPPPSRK
UniProt O75912: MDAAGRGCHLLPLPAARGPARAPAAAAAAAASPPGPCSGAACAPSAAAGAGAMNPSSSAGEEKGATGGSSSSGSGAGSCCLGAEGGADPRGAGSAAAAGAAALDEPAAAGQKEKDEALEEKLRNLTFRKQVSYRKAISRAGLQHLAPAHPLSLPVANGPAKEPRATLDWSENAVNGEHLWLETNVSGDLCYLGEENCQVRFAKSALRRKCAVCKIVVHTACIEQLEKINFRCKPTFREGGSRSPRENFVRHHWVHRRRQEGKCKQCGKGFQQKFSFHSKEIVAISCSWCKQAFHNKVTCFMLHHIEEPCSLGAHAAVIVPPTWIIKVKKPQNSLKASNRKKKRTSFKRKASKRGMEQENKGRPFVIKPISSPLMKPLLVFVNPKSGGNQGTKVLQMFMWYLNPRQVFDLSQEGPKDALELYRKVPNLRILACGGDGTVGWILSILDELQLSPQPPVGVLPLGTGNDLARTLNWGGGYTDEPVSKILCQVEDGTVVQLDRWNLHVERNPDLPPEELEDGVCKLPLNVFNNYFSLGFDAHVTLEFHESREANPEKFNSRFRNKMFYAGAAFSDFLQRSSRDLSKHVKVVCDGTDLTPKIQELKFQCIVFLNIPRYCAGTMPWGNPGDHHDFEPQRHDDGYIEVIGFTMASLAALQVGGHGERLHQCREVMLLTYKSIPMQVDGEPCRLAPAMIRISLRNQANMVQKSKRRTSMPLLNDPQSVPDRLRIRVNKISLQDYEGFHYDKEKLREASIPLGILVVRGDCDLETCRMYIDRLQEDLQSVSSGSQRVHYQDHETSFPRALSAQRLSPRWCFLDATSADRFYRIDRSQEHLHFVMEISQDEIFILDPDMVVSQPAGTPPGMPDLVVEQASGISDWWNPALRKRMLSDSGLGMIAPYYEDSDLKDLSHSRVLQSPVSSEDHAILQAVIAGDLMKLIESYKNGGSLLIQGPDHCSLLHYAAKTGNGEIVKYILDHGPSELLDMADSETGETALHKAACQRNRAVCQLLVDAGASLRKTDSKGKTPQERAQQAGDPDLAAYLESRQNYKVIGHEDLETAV


Target: T1, TIA-1 related protein (TIA-R) (human (endogenous in frontal cortex tissue))
Test: affinity purification with mass spectrometry

Row | Molecule | binding
1 | YBX1 (from UniProt P67809 1-324) | binds
2 | EIF5 (from UniProt P55010 1-431) | binds
3 | NME1 (from UniProt P15531 1-152) | binds
4 | TUBA4A (from UniProt P68366 1-448) | binds
5 | APP (from UniProt P05067) | binds
6 | HNRNPAB (from UniProt Q99729 1-332) | binds
7 | EEF1A2 (from UniProt Q05639 1-463) | binds
8 | EIF4A3 (from UniProt P38919 1-411) | binds
9 | GSN (from UniProt P06396 28-782) | binds
10 | RBBP9 (from UniProt O75884 1-186) | binds
11 | RasGAP SH3-domain binding protein 1 (G3BP1) (from UniProt Q13283 1-466) | binds
12 | ZFHX4 (from UniProt Q86UP3 1-3567) | binds
13 | FXYD6 (from UniProt Q9H0Q3 19-95) | binds
14 | PABPC1 (from UniProt P11940 1-636) | binds
15 | TUBA1B (from UniProt P68363 1-451) | binds
16 | DDX17 (from UniProt Q92841 1-729) | binds
17 | DGKI (from UniProt O75912 1-1057) | binds
18 | T-cell restricted intracellular antigen 1 (TIA-1) (protein, UniProt P31483 1-386) MEDEMPKTLYVGNLSRDVTEALILQLFSQIGPCKNCKMIMDTAGNDPYCFVEFHEHRHAAAALAAMNGRKIMGKEVKVNWATTPSSQKKDTSSSTVVSTQRSQDHFHVFVGDLSPEITTEDIKAAFAPFGRISDARVVKDMATGKSKGYGFVSFFNKWDAENAIQQMGGQWLGGRQIRTNWATRKPPAPKSTYESNTKQLSYDEVVNQSSPSNCTVYCGGVTSGLTEQLMRQTFSPFGQIMEIRVFPDKGYSFVRFNSHESAAHAIVSVNGTTIEGHVVKCYWGKETLDMINPVQQQNQIGYPQPYGQWGQWYGNAQQIGQYMPNGWQVPAYGMYGQAWNQQGFNQTQSSAPWMGPNYGVQPPQGQNGSMLPNQPSGYRVAGYETQ | binds
19 | PRR4 (protein, UniProt Q16378 17-134) QSTDNDVNYEDFTFTIPDVEDSSQRPDQGPQRPPPEGLLPRPPGDSGNQDDGPQQRPPKPGGHHRHPPPPPFQNQQRPPRRGHRQLSLPRFPSVSLQEASSFFQRDRPARHPQEQPLW | binds
20 | ANXA6 (protein, UniProt P08133 1-673) MAKPAQGAKYRGSIHDFPGFDPNQDAEALYTAMKGFGSDKEAILDIITSRSNRQRQEVCQSYKSLYGKDLIADLKYELTGKFERLIVGLMRPPAYCDAKEIKDAISGIGTDEKCLIEILASRTNEQMHQLVAAYKDAYERDLEADIIGDTSGHFQKMLVVLLQGTREEDDVVSEDLVQQDVQDLYEAGELKWGTDEAQFIYILGNRSKQHLRLVFDEYLKTTGKPIEASIRGELSGDFEKLMLAVVKCIRSTPEYFAERLFKAMKGLGTRDNTLIRIMVSRSELDMLDIREIFRTKYEKSLYSMIKNDTSGEYKKTLLKLSGGDDDAAGQFFPEAAQVAYQMWELSAVARVELKGTVRPANDFNPDADAKALRKAMKGLGTDEDTIIDIITHRSNVQRQQIRQTFKSHFGRDLMTDLKSEISGDLARLILGLMMPPAHYDAKQLKKAMEGAGTDEKALIEILATRTNAEIRAINEAYKEDYHKSLEDALSSDTSGHFRRILISLATGHREEGGENLDQAREDAQVAAEILEIADTPSGDKTSLETRFMTILCTRSYPHLRRVFQEFIKMTNYDVEHTIKKEMSGDVRDAFVAIVQSVKNKPLFFADKLYKSMKGAGTDEKTLTRIMVSRSEIDLLNIRREFIEKYDKSLHQAIEGDTSGDFLKALLALCGGED | binds
21 | PLA2G2A (protein, UniProt P14555 21-144) NLVNFHRMIKLTTGKEAALSYGFYGCHCGVGGRGSPKDATDRCCVTHDCCYKRLEKRGCGTKFLSYKFSNSGSRITCAKQDSCRSQLCECDKAAATCFARNKTTYNKKYQYYSNKHCRGSTPRC | binds
22 | SERPING1 (protein, UniProt P05155 23-500) NPNATSSSSQDPESLQDRGEGKVATTVISKMLFVEPILEVSSLPTTNSTTNSATKITANTTDEPTTQPTTEPTTQPTIQPTQPTTQLPTDSPTQPTTGSFCPGPVTLCSDLESHSTEAVLGDALVDFSLKLYHAFSAMKKVETNMAFSPFSIASLLTQVLLGAGENTKTNLESILSYPKDFTCVHQALKGFTTKGVTSVSQIFHSPDLAIRDTFVNASRTLYSSSPRVLSNNSDANLELINTWVAKNTNNKISRLLDSLPSDTRLVLLNAIYLSAKWKTTFDPKKTRMEPFHFKNSVIKVPMMNSKKYPVAHFIDQTLKAKVGQLQLSHNLSLVILVPQNLKHRLEDMEQALSPSVFKAIMEKLEMSKFQPTLLTLPRIKVTTSQDMLSIMEKLEFFDFSYDLNLCGLTEDPDLQVSAMQHQTVLELTETGVEAAAASAISVARTLLVFEVQQPFLFVLWDQQHKFPVFMGRVYDPRA | binds
23 | APOL1 (protein, UniProt O14791 28-398) EEAGARVQQNVPSGTDTGDPQSKPLGDWAAGTMDPESSIFIEDAIKYFKEKVSTQNLLLLLTDNEAWNGFVAAAELPRNEADELRKALDNLARQMIMKDKNWHDKGQQYRNWFLKEFPRLKSELEDNIRRLRALADGVQKVHKGTTIANVVSGSLSISSGILTLVGMGLAPFTEGGSLVLLEPGMELGITAALTGITSSTMDYGKKWWTQAQAHDLVIKSLDKLKEVREFLGENISNFLSLAGNTYQLTRGIGKDIRALRRARANLQSVPHASASRPRVTEPISAESGEQVERVNEPSILEMSRGVKLTDVAPVSFFLVLDVVYLVYESKHLHEGAKSETAEELKKVAQELEEKLNILNNNYKILQADQEL | binds
24 | PRDX3 (protein, UniProt P30048 62-256) APAVTQHAPYFKGTAVVNGEFKDLSLDDFKGKYLVLFFYPLDFTFVCPTEIVAFSDKANEFHDVNCEVVAVSVDSHFSHLAWINTPRKNGGLGHMNIALLSDLTKQISRDYGVLLEGSGLALRGLFIIDPNGVIKHLSVNDLPVGRSVEETLRLVKAFQYVETHGEVCPANWTPDSPTIKPSPAASKEYFQKVNQ | binds
25 | RBM3 (protein, UniProt P98179 1-157) MSSEEGKLFVGGLNFNTDEQALEDHFSSFGPISEVVVVKDRETQRSRGFGFITFTNPEHASVAMRAMNGESLDGRQIRVDHAGKSARGTRGGGFGAHGRGRSYSRGGGDQGYGSGRYYDSRPGGYGYGYGRSRDYNGRNQGGYDRYSGGNYRDNYDN | binds
26 | HARS1 (protein, UniProt P12081 1-509) MAERAALEELVKLQGERVRGLKQQKASAELIEEEVAKLLKLKAQLGPDESKQKFVLKTPKGTRDYSPRQMAVREKVFDVIIRCFKRHGAEVIDTPVFELKETLMGKYGEDSKLIYDLKDQGGELLSLRYDLTVPFARYLAMNKLTNIKRYHIAKVYRRDNPAMTRGRYREFYQCDFDIAGNFDPMIPDAECLKIMCEILSSLQIGDFLVKVNDRRILDGMFAICGVSDSKFRTICSSVDKLDKVSWEEVKNEMVGEKGLAPEVADRIGDYVQQHGGVSLVEQLLQDPKLSQNKQALEGLGDLKLLFEYLTLFGIDDKISFDLSLARGLDYYTGVIYEAVLLQTPAQAGEEPLGVGSVAAGGRYDGLVGMFDPKGRKVPCVGLSIGVERIFSIVEQRLEALEEKIRTTETQVLVASAQKKLLEERLKLVSELWDAGIKAELLYKKNPKLLNQLQYCEEAGIPLVAIIGEQELKDGVIKLRSVTSREEVDVRREDLVEEIKRRTGQPLCIC | binds
27 | NFASC (protein, UniProt O94856 25-1347) IEIPMDPSIQNELTQPPTITKQSAKDHIVDPRDNILIECEAKGNPAPSFHWTRNSRFFNIAKDPRVSMRRRSGTLVIDFRSGGRPEEYEGEYQCFARNKFGTALSNRIRLQVSKSPLWPKENLDPVVVQEGAPLTLQCNPPPGLPSPVIFWMSSSMEPITQDKRVSQGHNGDLYFSNVMLQDMQTDYSCNARFHFTHTIQQKNPFTLKVLTTRGVAERTPSFMYPQGTASSQMVLRGMDLLLECIASGVPTPDIAWYKKGGDLPSDKAKFENFNKALRITNVSEEDSGEYFCLASNKMGSIRHTISVRVKAAPYWLDEPKNLILAPGEDGRLVCRANGNPKPTVQWMVNGEPLQSAPPNPNREVAGDTIIFRDTQISSRAVYQCNTSNEHGYLLANAFVSVLDVPPRMLSPRNQLIRVILYNRTRLDCPFFGSPIPTLRWFKNGQGSNLDGGNYHVYENGSLEIKMIRKEDQGIYTCVATNILGKAENQVRLEVKDPTRIYRMPEDQVARRGTTVQLECRVKHDPSLKLTVSWLKDDEPLYIGNRMKKEDDSLTIFGVAERDQGSYTCVASTELDQDLAKAYLTVLADQATPTNRLAALPKGRPDRPRDLELTDLAERSVRLTWIPGDANNSPITDYVVQFEEDQFQPGVWHDHSKYPGSVNSAVLRLSPYVNYQFRVIAINEVGSSHPSLPSERYRTSGAPPESNPGDVKGEGTRKNNMEITWTPMNATSAFGPNLRYIVKWRRRETREAWNNVTVWGSRYVVGQTPVYVPYEIRVQAENDFGKGPEPESVIGYSGEDYPRAAPTEVKVRVMNSTAISLQWNRVYSDTVQGQLREYRAYYWRESSLLKNLWVSQKRQQASFPGDRLRGVVSRLFPYSNYKLEMVVVNGRGDGPRSETKEFTTPEGVPSAPRRFRVRQPNLETINLEWDHPEHPNGIMIGYTLKYVAFNGTKVGKQIVENFSPNQTKFTVQRTDPVSRYRFTLSARTQVGSGEAVTEESPAPPNEATPTAAPPTLPPTTVGATGAVSSTDATAIAATTEATTVPIIPTVAPTTIATTTTVATTTTTTAAATTTTESPPTTTSGTKIHESAPDEQSIWNVTVLPNSKWANITWKHNFGPGTDFVVEYIDSNHTKKTVPVKAQAQPIQLTDLYPGMTYTLRVYSRDNEGISSTVITFMTSTAYTNNQADIATQGWFIGLMCAIALLVLILLIVCFIKRSRGGKYPVREKKDVPLGPEDPKEEDGSFDYSDEDNKPLQGSQTSLDGTIKQQESDDSLVDYGEGGEGQFNEDGSFIGQYTVKKDKEETEGNESSEATSPVNAIYSLA | binds

— doi:10.1101/2025.07.20.665556
